PubChem BioAssay AID686943 – Drosophila RNAi Screening Center | 2013
Screen: 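Knockdowns that increase or decrease active ERK after insulin receptor stimulation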 (primary screen). Cells: Drosophila S2R+ haemocyte-like cells expressing YFP-tagged ERK (Rolled). Reagent: long dsRNA against Drosophila genes. Challenge: insulin stimulation versus unstimulated cells; dose and duration not given. Measurement: 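Per-plate z-scores of phospho-ERK immunostaining normalised to YFP-tagged ERK, measured with and without insulin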. Direction: replicate 1, z-score of dpERK with insulin: higher = more active ERK per ERK-YFP after insulin.
The deposit covers about 23,000 reagents; below is a random part of those with a known target gene and a result. 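Extra replicates exist only for a retested subset of genes; insulin dose and duration not given; both raised and lowered dpERK matter.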 The numbers tell different reagents against one gene apart. Names joined by + are all predicted targets of the reagent. Not all columns of the deposit are shown. Not stated in the record: the amount of reagent, the time to read-out.

replicate 1, z-score of dpERK with insulin, by target gene and reagent
CG31337: #1 -0.17
CG14453: #1 -0.19
indra: #1 -1.08
Stt3A: #1 0.35
CG4686: #1 0.3
CG17807: #1 -0.02
BomBc1: #1 0.73
Tak1: #1 -2.31; #2 -1.43; #3 1.61
CG43795 + SkpF: #1 1.26
Lime: #1 1.31
Sprn: #1 0.26
ERR: #1 -0.02
Cog2: #1 1.09
CG13428: #1 0.24
sPLA2: #1 1.2
Acsf2: #1 -0.49
CG4709: #1 -0.68
CG13744: #1 0.69
CG13023: #1 -1.21; #2 0.26
cpb: #1 -0.16
CG34040: #1 -0.38
shn: #1 -0.05; #2 -4.2
CG42500: #1 1.2
CG6470: #1 -0.33
PpD3: #1 -0.37
Pdzd8: #1 2.02
CG5447: #1 0.03
CG13707: #1 0.21
side-III: #1 0.33; #2 2.51; #3 1.1
Prosalpha6T: #1 -1.68
RpS4: #1 1.13
Tie: #1 -1.31; #2 -0.32
Arr2: #1 0.21
CG1532: #1 -0.06
CG12857: #1 0.64
PPYR1: #1 -0.82
CG12517: #1 -1.29
unpg: #1 -0.59

5 successive entries already listed, quoted:
replicate 1, z-score of dpERK with insulin, by target gene and reagent
side-III: #1 0.33; #2 2.51; #3 1.1
Prosalpha6T: #1 -1.68
RpS4: #1 1.13

The listing continues:
replicate 1, z-score of dpERK with insulin, by target gene and reagent
CG14667: #1 -0.59
kl-5 (retired record): #1 -0.25; #2 0.34; #3 -0.85; #4 -0.01
Chd3: #1 -0.65
CG16789: #1 0.25
CG14694: #1 0.09
CG13716: #1 0.46; #2 0.11
FASN1: #1 2
CG7333: #1 -0.25
pyd: #1 1.59; #2 0.71; #3 -0.4; #4 0.14; #5 -0.4; #6 -0.03; #7 0.43; #8 -0.31
dpr20: #1 0.08
CG2528: #1 0.19
mRpS30: #1 0.55
CG4440: #1 0.37
unc-13: #1 -0.11; #2 0.13; #3 -0.21
ppk18: #1 0.27; #2 -0.15
